Experimental data reported in paper PMC9198586.
No constants are given. Whether binding was seen depends on the method and setting. Binding seen in cells or lysates may run through a third protein.

Sequences of proteins named here, by UniProt entry; tags and fusion partners are left off.
UniProt P02340: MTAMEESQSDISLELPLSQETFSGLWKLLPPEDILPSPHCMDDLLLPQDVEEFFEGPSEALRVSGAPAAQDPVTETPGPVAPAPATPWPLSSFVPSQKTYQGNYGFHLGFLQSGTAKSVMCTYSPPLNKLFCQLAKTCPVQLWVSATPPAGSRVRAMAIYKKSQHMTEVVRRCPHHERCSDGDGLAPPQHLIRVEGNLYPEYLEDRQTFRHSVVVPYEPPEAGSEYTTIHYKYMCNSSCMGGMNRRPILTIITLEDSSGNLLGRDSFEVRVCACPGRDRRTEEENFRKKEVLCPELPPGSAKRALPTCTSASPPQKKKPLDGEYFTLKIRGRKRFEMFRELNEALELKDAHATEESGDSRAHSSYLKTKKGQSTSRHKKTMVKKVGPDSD
UniProt P23804: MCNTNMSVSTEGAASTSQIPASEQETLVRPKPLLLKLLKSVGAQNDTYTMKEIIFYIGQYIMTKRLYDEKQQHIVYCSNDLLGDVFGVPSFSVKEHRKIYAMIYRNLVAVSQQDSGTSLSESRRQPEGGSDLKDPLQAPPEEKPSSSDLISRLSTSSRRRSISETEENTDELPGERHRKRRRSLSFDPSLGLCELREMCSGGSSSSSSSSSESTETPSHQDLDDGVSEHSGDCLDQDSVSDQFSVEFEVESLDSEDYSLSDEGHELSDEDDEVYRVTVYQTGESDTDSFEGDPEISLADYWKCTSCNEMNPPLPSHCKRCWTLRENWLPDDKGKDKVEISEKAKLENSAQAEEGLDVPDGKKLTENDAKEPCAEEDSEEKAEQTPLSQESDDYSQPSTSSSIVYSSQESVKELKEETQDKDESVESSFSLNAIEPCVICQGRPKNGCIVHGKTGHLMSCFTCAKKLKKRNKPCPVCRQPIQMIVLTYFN

Biological target: p53 (mouse, wild type) (mouse (endogenous in TA3-Sth)) (UniProt P02340)
Assay: co-IP; TA3-Sth mouse tumor cells treated with nutlin; MDM2 in precipitates detected by 4B2 antibody

Q: For “MDM2 (mouse) (from UniProt P23804 1-489)”, which binding is on record?
A: no binding (condition: cells treated with nutlin)
